No constants are given. Whether binding was seen depends on the method and setting. Some entries that bind do so weakly or less than the wild type. Tags and fused reporters may be left off the sequences shown.
How the values were obtained:
[1] = molecular target: T1, Mpp10 fused to the GAL4 DNA binding domain (S. cerevisiae) (UniProt P47083); assay: two-hybrid
T1 sequence: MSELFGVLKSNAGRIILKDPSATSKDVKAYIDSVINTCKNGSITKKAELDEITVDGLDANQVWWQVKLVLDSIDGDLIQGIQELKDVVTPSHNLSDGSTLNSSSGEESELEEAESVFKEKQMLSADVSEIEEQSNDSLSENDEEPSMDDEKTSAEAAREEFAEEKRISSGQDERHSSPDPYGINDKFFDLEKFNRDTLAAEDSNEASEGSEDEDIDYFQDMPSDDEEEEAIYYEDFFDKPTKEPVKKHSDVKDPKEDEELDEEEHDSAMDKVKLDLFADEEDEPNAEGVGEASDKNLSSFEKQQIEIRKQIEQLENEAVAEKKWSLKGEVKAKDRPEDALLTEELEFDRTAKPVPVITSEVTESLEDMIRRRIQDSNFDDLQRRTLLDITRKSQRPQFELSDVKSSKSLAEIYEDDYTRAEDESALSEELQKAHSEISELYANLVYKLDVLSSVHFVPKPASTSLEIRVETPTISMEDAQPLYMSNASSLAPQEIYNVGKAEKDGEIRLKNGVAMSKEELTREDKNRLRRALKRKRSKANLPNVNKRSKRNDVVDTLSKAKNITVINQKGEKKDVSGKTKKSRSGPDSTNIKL

[2] = molecular target: T2, Utp18 fused to the GAL4 DNA binding domain (S. cerevisiae) (UniProt P40362); assay: two-hybrid
T2 sequence: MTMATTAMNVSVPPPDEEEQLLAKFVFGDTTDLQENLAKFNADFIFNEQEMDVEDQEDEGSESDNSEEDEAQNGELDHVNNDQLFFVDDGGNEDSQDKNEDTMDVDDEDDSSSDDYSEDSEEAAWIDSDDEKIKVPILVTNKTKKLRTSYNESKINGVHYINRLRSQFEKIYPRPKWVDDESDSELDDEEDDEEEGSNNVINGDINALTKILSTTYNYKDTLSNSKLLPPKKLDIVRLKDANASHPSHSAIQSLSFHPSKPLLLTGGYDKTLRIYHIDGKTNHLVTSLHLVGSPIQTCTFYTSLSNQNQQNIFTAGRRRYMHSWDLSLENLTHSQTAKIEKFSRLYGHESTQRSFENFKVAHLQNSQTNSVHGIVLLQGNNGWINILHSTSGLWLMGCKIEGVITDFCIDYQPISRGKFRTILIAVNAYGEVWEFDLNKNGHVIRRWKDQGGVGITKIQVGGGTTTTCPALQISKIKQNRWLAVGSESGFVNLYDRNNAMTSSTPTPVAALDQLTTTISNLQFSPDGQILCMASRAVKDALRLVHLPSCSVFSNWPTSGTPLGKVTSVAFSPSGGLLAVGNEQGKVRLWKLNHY

- binding [1]: binds
- binding [2]: binds
B1: Stm1 fused to the GAL4 activation domain (protein, UniProt P39015 1-273)
chain: MSNPFDLLGNDVEDADVVVLPPKEIVKSNTSSKKADVPPPSADPSKARKNRPRPSGNEGAIRDKTAGRRNNRSKDVTDSATTKKSNTRRATDRHSRTGKTDTKKKVNQGWGDDKKELSAEKEAQADAAAEIAEDAAEAEDAGKPKTAQLSLQDYLNQQANNQFNKVPEAKKVELDAERIETAEKEAYVPATKVKNVKSKQLKTKEYLEFDATFVESNTRKNFGDRNNNSRNNFNNRRGGRGARKGNNTANATNSANTVQKNRNIDVSNLPSLA

From publication doi:10.1101/2024.04.22.590536 (bioRxiv, 2024)
